Laboratory results: PubChem BioAssay AID504444 (National Center for Advancing Translational Sciences (NCATS), 2011)
Out of some 360,000 compounds screened, about 7,500 (2.1%) were called active. Inconclusive means that the source gave no clear call. Such entries were picked first, then a sample of the others. Calls follow the shape of the dose curve; as a rule, active = well fitted inhibition curve with a large enough effect; inconclusive = small, poorly fitted or top-dose-only effect, or effect the other way; inactive = flat fitted curve, though single readings scatter. A potency beside an inconclusive call is a rough fit, not a confirmed value.

Test: Nrf2 qHTS screen for inhibitors; also: nearly all actives have a fitted effect of over 60% in size
Details: A549 ARE-Fluc reporter, luciferase luminescence, 18-24 h; activity change, negative = inhibition: at 46 µM (top of the series)
Summary of the method: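 Two sequential reads on A549 ARE_Fluc cells exposed to compound for 18-24 h: a CellTiter-Fluor fluorescence read for viability, then a luciferase luminescence read for Nrf2/ARE activity.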
% is scaled to controls: 0 for no effect and ±100 for the full control effect; potency is read from the fitted curve at half-maximal effect.

Compound	activity change, negative = inhibition	Potency
C=CCn1c(SCC(=O)N2CCOCC2)nnc1C(C)NC(=O)c1ccccc1 (stereo unspecified)	inactive: -2.85%	–
COc1ccccc1N1CCN(CCCNC(=O)c2nnc(Cc3c(F)cccc3Cl)o2)CC1	inactive: -13.5%	–
CN(CC(=O)Nc1ccc(Cl)c(C(F)(F)F)c1)C(=O)c1cn2ccccc2n1	–	inconclusive: 29.1 µM [falling, single point]
COc1cc(/C=N/Nc2nc3ccccc3[nH]2)cc(Br)c1OCC(=O)N(C)C	–	inconclusive: 10.3 µM [falling, partial curve, poor fit]
COc1cccc(CN(C(=O)COc2ccccc2[N+](=O)[O-])C2CCS(=O)(=O)C2)c1 (stereo unspecified)	–	inconclusive: 1.84 µM [falling, partial curve, poor fit]
COc1ccc(OC)c(CC(=O)N2CCc3cc(OC)c(OC)cc3C2)c1	inactive: -4.04%	–
CCCCN(C(=O)CCC(=O)Nc1cc(C)on1)C(C(=O)NC(C)(C)C)c1cccc(OC)c1OC (stereo unspecified)	–	inconclusive: 0.13 µM [falling, partial curve, poor fit]
CCc1ccccc1OCC(=O)NC1CCCC1	inactive: 1.93%	–
COc1cccc(-c2cc(C(=O)N3CCN(c4ccccc4OC)CC3)no2)c1	–	inconclusive: 32.6 µM [falling, single point]
O=C(c1cc(-c2ccccc2)on1)N1CCc2ccccc2C1	–	inconclusive: 29.1 µM [activator, single point]
Cc1cccc(CSc2nc(N)c(C#N)c(-c3cccs3)c2C#N)c1	–	inconclusive: 10.3 µM [falling, partial curve]
Cn1cccc1C(=O)NCCc1ccc(Cl)cc1	–	inconclusive: 2.06 µM [activator, partial curve]
COc1ccc(OCC(=O)Nc2ccc(Cl)cc2)cc1	inactive: -5.66%	–
CCCC(=O)c1c[nH]c(C(=O)NCCCN2CCOCC2)c1	inactive: 1.19%	–
Cc1ccc(-c2csc3ncnc(N4CCN(Cc5ccccc5)CC4)c23)cc1	–	active: 23.1 µM
CCc1ccc(NC(=O)c2sc3nc4c(cc3c2N)CN(CC)CC4)cc1	–	inconclusive: 11.6 µM [activator, partial curve, poor fit]
COc1ccc(Cl)cc1NC(=O)Cc1coc2c(C)c(C)ccc12	–	inconclusive: 18.4 µM [falling, single point]
O=S(=O)(c1c(F)cccc1F)N1CCN(C(=S)NCc2ccc3c(c2)OCO3)CC1	–	inconclusive: 18.4 µM [falling, single point]
Cc1c(C)c2ccc(OCC(=O)Nc3nccs3)cc2oc1=O	–	inconclusive: 29.1 µM [falling, single point]
Cn1c(N)c(S(=O)(=O)N2CCN(c3ccccc3)CC2)c(=O)n(C)c1=O	–	inconclusive: 0.517 µM [falling, full curve, poor fit]
COc1ccc(C2C(C(C)=O)=C(C)N=c3s/c(=C\c4cc(C)n(C)c4C)c(=O)n32)c(OC)c1 (stereo unspecified)	–	inconclusive: 20.6 µM [falling, single point]
CCc1cccc(NC(=O)C2CCCN2S(=O)(=O)c2ccc3c(c2)CC(C)N3C(C)=O)c1 (stereo unspecified)	–	inconclusive: 23.1 µM [falling, single point]

Record cards (already shown):
CCCC(=O)c1c[nH]c(C(=O)NCCCN2CCOCC2)c1 as listed: activity change, negative = inhibition: inactive: 1.19%
Cn1cccc1C(=O)NCCc1ccc(Cl)cc1 as listed: Potency: inconclusive: 2.06 µM [activator, partial curve]
C=CCn1c(SCC(=O)N2CCOCC2)nnc1C(C)NC(=O)c1ccccc1 (stereo unspecified) as listed: activity change, negative = inhibition: inactive: -2.85%
O=C(c1cc(-c2ccccc2)on1)N1CCc2ccccc2C1 as listed: Potency: inconclusive: 29.1 µM [activator, single point]

(continued)

Compound	activity change, negative = inhibition	Potency
COc1ccc(-n2c(C)cc(C(=O)NC3CCCCC3)c2C)cc1	–	inconclusive: 2.59 µM [activator, full curve, poor fit]
O=C(CNC(=O)c1nc[nH]c1C(=O)N1CCc2ccccc2C1)OCc1ccccc1	–	inconclusive: 0.0052 µM [falling, full curve, poor fit]
O=C(NCCc1ccc(F)cc1)c1ccc2nccnc2c1	–	inconclusive: 8.2 µM [activator, partial curve]
COC(=O)c1ccc(NC(=O)CCc2c(C)nn(-c3ccc(N4CCOCC4)nn3)c2C)cc1	–	inconclusive: 16.4 µM [activator, partial curve]
COc1ccc2[nH]c3c(c2c1)CCN1C(=O)C(CC(=O)NCCC2=CCCCC2)C[C@H](C(=O)N2CCOCC2)[C@@]31C (stereo partly specified)	inactive: 2.69%	–
O=C(Nc1ccc(F)cc1)c1ccc(Cn2nc(N3CCN(c4ccccc4)CC3)ccc2=O)o1	–	active: 8.2 µM
Cc1ccc(-n2nc3c(=O)n(CC(=O)NCc4ccc(C)o4)nc(C)c3c2C)cc1	–	inconclusive: 25.9 µM [falling, single point]
C=CCn1c(=O)[nH]c2cc(C(=O)N3CCN(c4ccc(C(C)=O)cc4)CC3)ccc2c1=O	–	inconclusive: 29.1 µM [falling, single point]
Cc1ccc(CNS(=O)(=O)c2ccc(-c3cnc(C4CC4)o3)cc2)cc1	inactive: -3.86%	–
CC(=O)N1CC(C)Oc2ccc(S(=O)(=O)NC(CC(=O)O)c3ccc(C)cc3C)cc21 (stereo unspecified)	inactive: 7.54%	–
C[C@@H]1CN[C@H](CCO)/C1=C\c1ccccc1	inactive: -16.2%	–
CCCCCc1cc(=O)oc2c(C(CCN3CCCC(C)C3)c3cc(OC)c(OC)c(OC)c3)c(OC)cc(OC)c12 (stereo unspecified)	inactive: 5.04%	–
CCc1cccc(NC(=O)Cn2c(=O)c(C(F)(F)F)nc3ccccc32)c1	–	inconclusive: 29.1 µM [activator, single point]
O=[N+]([O-])c1cccnc1Oc1ccc(F)cc1	–	inconclusive: 18.4 µM [activator, partial curve]
CCc1ccc(NC(=O)C2CCN(c3ncnc4c3nc3n4CCCCC3)CC2)cc1	inactive: -13.2%	–
Cc1ccc(Nc2ncc3c(n2)CC(C)CC3=O)c(C)c1 (stereo unspecified)	–	inconclusive: 2.59 µM [activator, full curve]
CCCN(CCC)CC(O)Cn1cc(/C=C/C(=O)c2ccc(OC)cc2)c2ccccc21 (stereo unspecified)	inactive: 4.08%	–
Cc1ccc(-c2nnc(N3CCCCC3)c3ccccc23)cc1	inactive: -12.1%	–
Cc1ccc(C)c(NC(=S)NNC(=O)c2csc(C(C)C)c2)c1	–	inconclusive: 29.1 µM [falling, single point]
CCC(CC)C(=O)Nc1c(C(=O)N2CCN(c3ccccc3)CC2)oc2ccccc12	–	inconclusive: 23.1 µM [falling, partial curve, poor fit]
CN1CCN(CC(=O)N2N=C(c3cccs3)CC2c2ccco2)CC1 (stereo unspecified)	inactive: 1.4%	–
COc1ccc(CCN(C)C(=O)CCCN2C(=O)c3cccc4cccc(c34)C2=O)cc1OC	–	inconclusive: 3.26 µM [falling, partial curve]

Compound	activity change, negative = inhibition	Potency
Cc1cnc(C(=O)N2CCCC(N3CCN(c4ccccc4F)CC3)C2)cn1 (stereo unspecified)	–	inconclusive: 11.6 µM [activator, partial curve, poor fit]
CC(=O)Nc1ccc(NC(=O)Cn2c(=O)n(-c3ccc(F)cc3)c(=O)c3oc4ccccc4c32)cc1	–	inconclusive: 25.9 µM [falling, single point]
NC(=O)CC(NC(=O)Cc1ccc(Br)cc1)c1ccc(N2CCCCCCC2)c([N+](=O)[O-])c1 (stereo unspecified)	inactive: -29%	–
NNC(=O)CCN1CCN(C(c2ccccc2)c2ccccc2)CC1	–	inconclusive: 7.31 µM [activator, partial curve, poor fit]
CCC(CC)C(=O)Nc1nc(-c2ccc3c(c2)CCN3C(=O)C2CC2)c(C)s1	–	inconclusive: 20.6 µM [falling, single point]
Brc1ccc2ncnc(Nc3cccc4ccccc34)c2c1	–	inconclusive: 20.6 µM [falling, single point]
Cc1cccc(C)c1-n1nnnc1C1(Nc2ccccc2)CCCCC1	–	inconclusive: 29.1 µM [falling, single point]
O=C(O)c1ccc(N=C2c3ccccc3-c3ccccc32)cc1	–	inconclusive: 32.6 µM [activator, partial curve, poor fit]
COc1ccc(OCCn2nnc3sc4c(c3c2=O)CCC(C(C)(C)C)C4)cc1 (stereo unspecified)	inactive: 4.56%	–
Cc1ccc(CN(CC(=O)N/N=C/c2ccco2)S(=O)(=O)c2ccc(C)cc2)cc1	–	inconclusive: 1.03 µM [falling, full curve, poor fit]
CCc1cccc(NC(=O)COC(=O)/C=C/c2cccs2)c1	–	inconclusive: 4.11 µM [activator, full curve, poor fit]
CCOc1ccc(OCc2cccc(C(=O)N3CCOCC3)c2)cc1	–	inconclusive: 0.164 µM [activator, full curve]
CCc1ccc(NC(=O)c2cc(CC(C)C)on2)cc1	–	inconclusive: 5.8 µM [activator, partial curve, poor fit]
O=C(CCN1CCc2ccccc2C1)Nc1ccc(F)c(F)c1	–	inconclusive: 18.4 µM [falling, partial curve, poor fit]
C=CCNc1nc(-c2ccc3c(c2)OCCO3)cs1	–	inconclusive: 1.3 µM [activator, full curve, poor fit]
COc1ccc2oc3ccccc3c(=O)c2c1	–	inconclusive: 20.6 µM [activator, partial curve]
CCOc1ccc2nc(N3C(=O)C(O)=C(C(=O)c4ccco4)C3c3ccco3)sc2c1 (stereo unspecified)	–	inconclusive: 9.2 µM [falling, partial curve, poor fit]
CCCCCn1c(=O)[nH]c2cc(C(=O)NCCN(C)CCCC)ccc2c1=O	inactive: 7.46% [at 9.27 µM]	–
COC(c1ccccc1)c1nnc(CCC(=O)NCCCc2ccccc2)o1 (stereo unspecified)	–	inconclusive: 18.4 µM [activator, single point]
Cc1ccc(S(=O)(=O)Nc2ccccc2C(=O)Nc2ccc(S(=O)(=O)Nc3nccc(C)n3)cc2)cc1	inactive: -5.85%	–
O=C(NCc1ccccc1F)c1ccc2c(c1)OCCO2	–	inconclusive: 11.6 µM [activator, partial curve]
O=C(O)c1ccc(N/N=C/c2cccc3nccnc23)cc1	–	inconclusive: 18.4 µM [falling, partial curve, poor fit]

2 entries from above, with bars between the fields:
Compound | activity change, negative = inhibition | Potency
O=C(O)c1ccc(N=C2c3ccccc3-c3ccccc32)cc1 | – | inconclusive: 32.6 µM [activator, partial curve, poor fit]
COc1ccc(OCCn2nnc3sc4c(c3c2=O)CCC(C(C)(C)C)C4)cc1 (stereo unspecified) | inactive: 4.56% | –
